These are yes or no findings as the source states them, for the method shown. For some of these results: Binding seen in cells or lysates may run through a third protein. Some binding calls cover weakened binding; strength is not graded here.
Key:
[1] = molecular target: T1, purified gC1qR/p32 protein (human, UniProt Q07021 74-282); test: phage binding to coated wells (5 µg/ml), 16 h at 37 C, plaque assay
T1 construct: also called purified p32
T1 sequence (looked up): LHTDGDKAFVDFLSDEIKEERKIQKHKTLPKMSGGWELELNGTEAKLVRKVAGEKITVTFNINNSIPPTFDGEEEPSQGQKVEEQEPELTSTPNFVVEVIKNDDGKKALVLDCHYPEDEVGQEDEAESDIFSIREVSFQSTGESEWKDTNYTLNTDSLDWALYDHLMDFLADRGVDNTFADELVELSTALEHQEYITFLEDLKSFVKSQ

[2] = molecular target: T1, purified gC1qR/p32 protein; test: phage binding to coated wells, plaque assay
[3] = molecular target: T1, purified gC1qR/p32 protein; test: phage binding to coated wells
[4] = molecular target: T2, gC1qR/p32 at the cell surface (human, UniProt Q07021 74-282); test: phage binding to p32-transfected C8161 cells and Raji cells
T2 construct: whole, on cells; also called cell surface p32
T2 sequence (looked up): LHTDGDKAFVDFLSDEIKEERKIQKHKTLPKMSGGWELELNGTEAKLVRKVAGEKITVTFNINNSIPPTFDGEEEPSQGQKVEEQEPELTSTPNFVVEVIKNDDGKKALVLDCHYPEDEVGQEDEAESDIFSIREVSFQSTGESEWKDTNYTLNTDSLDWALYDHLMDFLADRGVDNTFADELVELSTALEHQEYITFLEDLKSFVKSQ

[5] = molecular target: T2, gC1qR/p32 at the cell surface; test: phage binding to transfected, EGFP-sorted C8161 cells
[6] = molecular target: T2, gC1qR/p32 at the cell surface; test: phage binding to transfected C8161 cells
[7] = molecular target: T3, gC1qR/p32 from tumor cell extracts (human, UniProt Q07021 74-282); test: pull-down with biotin-labeled peptide from MDA-MB-435 extracts; band identified by MALDI-TOF as mature gC1qR/p32; also from BT549 cells and MDA-MB-435 xenografts
T3 construct: mature; From xenograft extracts an additional 75 kD band was also identified as gC1qR/p32; also called gC1q/p32 receptor; p32/p33/gC1qR/HABP1
T3 sequence (looked up): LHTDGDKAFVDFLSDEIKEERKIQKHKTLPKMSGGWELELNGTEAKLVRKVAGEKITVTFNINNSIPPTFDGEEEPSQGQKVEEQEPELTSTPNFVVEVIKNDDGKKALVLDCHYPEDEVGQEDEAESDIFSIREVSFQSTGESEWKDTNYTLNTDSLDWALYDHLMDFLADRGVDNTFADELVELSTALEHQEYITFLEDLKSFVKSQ

[8] = molecular target: T3, gC1qR/p32 from tumor cell extracts; test: pull-down with biotinylated peptide from MDA-MB-435 cell and xenograft extracts
[9] = molecular target: T3, gC1qR/p32 from tumor cell extracts; test: pull-down with biotinylated peptide from MDA-MB-435 extracts
[10] = molecular target: T3, gC1qR/p32 from tumor cell extracts; test: pull-down with biotinylated peptide

Measured: binding

CGNKRTRGC (peptide, not shown: large carriers) [LyP-1 phage]
binds: [1] | [2] | [3] | [4] | [5] | [6]

CGNKRTRGC (biotinylated; cyclic peptide with a disulfide bond) [biotinylated Lyp-1 peptide]
binds: [7] | [8] | [9] | [10]
